In patent US5496717:
The exact form of at least one protein or probe is not confirmed.

Test system: Sse1825I restriction endonuclease (Streptomyces sp. AH1825 (FERM BP-4836))
Experiment: enzyme reaction in vitro
Settings: specific cleavage at heptanucleotide recognition sequence; optimum about 37 C, pH 7.0-9.0; cut position given only in formula image; purified native protein

In the case of “AATTCCTCGAGAAGGGACCCAACCATGGA (double strand) [Sse1825I cutting-site duplex (inserted in pUC118/pUC119)]”, the “activity on this sequence” value was “active”.
